PubChem BioAssay AID485353 (National Center for Advancing Translational Sciences (NCATS), 2010)
Among all 330,000 compounds or so, about 610 (0.18%) were called active. The inconclusive results got no clear call from the source; some entries with a clear call stand among them for comparison. Calls follow the shape of the full dose curve. Potencies beside an inconclusive call are fits to weak or partial responses and may not hold up.

assay: qHTS of Yeast-based Assay for SARS-CoV PLP; also: nearly all actives have a fitted effect of over 55% in size; as to activity, positive = growth rescue: 0% is about no effect; conditions: S. cerevisiae expressing SARS-CoV PLpro; Potency: growth rescue; activity, positive = growth rescue: at 32.9 µM (top of the series)
Potency is read from the fitted curve at half-maximal effect.

| SMILES | Potency | activity, positive = growth rescue |
| --- | --- | --- |
| Cc1cc(C(=O)N/N=C/c2cn(C)nc2C)c2ccccc2n1 | inconclusive: 4.47 µM [activator, single point] |  |
| CSc1oc(-c2cccs2)nc1S(=O)(=O)c1ccccc1 |  | inactive: -0.685% |
| CCn1c(SCc2ccccc2)nc2c1c(=O)[nH]c(=O)n2C | inconclusive: 3.16 µM [activator, single point] |  |
| Nc1nnc(SCCCC(=O)c2ccc(F)cc2)s1 |  | inactive: -23.2% |
| CCOc1ccc(S(=O)(=O)N(CC)CC(=O)NC2CC2)cc1 | inconclusive: 2.51 µM [activator, full curve] |  |
| CCCCn1c(N)c(N(CC(C)C)C(=O)C2CCN(S(=O)(=O)c3ccccc3)CC2)c(=O)[nH]c1=O |  | inactive: 6.75% |
| Cc1nc2ccc(S(=O)(=O)NCC(=O)NCc3ccc(Cl)cc3)cc2s1 | inconclusive: 2.51 µM [activator, single point] |  |
| CC(C)CC(=O)NN(C)c1nc(-c2ccccc2)nnc1C(F)(F)F | inconclusive: 20 µM [activator, single point] |  |
| O=[N+]([O-])c1ccc(Cc2cncc(O)c2)cc1 |  | inactive: -1.19% |
| COc1ccc(-c2nn(-c3ccccc3)cc2C(=O)Nc2nccs2)cc1 | inconclusive: 10 µM [activator, partial curve] |  |
| COCCN(CCOC)Cc1c(O)ccc2c1O/C(=C\c1ccc(C)o1)C2=O |  | inactive: -2.73% |
| Cn1c(SCc2nc3ccccc3s2)nnc1-c1cccs1 | inconclusive: 14.1 µM [activator, single point] |  |
| Cc1ccc(Cl)cc1NC(=O)COC(=O)c1ccc(N2CCCC2)c([N+](=O)[O-])c1 | inconclusive: 20 µM [activator, single point] |  |
| CCN(c1ccccc1)S(=O)(=O)c1cc2c(cc1C)n(C)c(=O)c(=O)n2C | inconclusive: 4.47 µM [activator, single point] |  |
| CCN(C(=O)CSc1nnnn1-c1ccc(Cl)cc1)C1CCS(=O)(=O)C1 (stereo not given) | inconclusive: 4.47 µM [activator, single point] |  |
| N#CCCn1c(SCC(=O)Nc2ccc(N3CCOCC3)cc2)nc2ccccc21 |  | inactive: 5.61% |
| Cn1c(=O)c2[nH]c(Nc3ccccc3)nc2n(C)c1=O |  | inactive: -9.91% |
| C=CCn1c(SCc2nc3scc(-c4ccccc4)c3c(=O)[nH]2)nnc1-c1ccccc1F | inconclusive: 2 µM [activator, partial curve] |  |
| O=C(CSc1nc2ccccc2[nH]1)Nc1nc(-c2ccccc2)c(-c2ccccc2)o1 | inconclusive: 4.47 µM [activator, single point] |  |
| Cc1ccc(NC(=O)C(C)N2CCc3ccccc3C2)cc1 (stereo not given) |  | inactive: -1.97% |
| COc1cc(SC)ccc1C(=O)Nc1ccc(OCC(=O)N2CCOCC2)cc1 |  | inactive: 0.421% |
| O=C(N=NC(=O)c1ccco1)c1ccc2c(O)n(N3C(=O)c4ccccc4C3=O)c(O)c2c1 | inconclusive: 12.6 µM [activator, partial curve] |  |
| CCOC(=O)C(C(=O)OCC)C(C[N+](=O)[O-])c1ccccc1 (stereo not given) |  | inactive: -0.297% |
| Cc1cccc(C(=O)Nc2ccc(O)cc2)c1 | inconclusive: 0.355 µM [activator, partial curve, poor fit] |  |

| SMILES | Potency | activity, positive = growth rescue |
| --- | --- | --- |
| O=C(CN1C(=O)CC(c2ccco2)Sc2ccccc21)Nc1ccccc1F (stereo not given) | inconclusive: 20 µM [activator, single point] |  |
| CCCCNC(=S)NNC(=O)c1csc(C(C)C)c1 | inconclusive: 20 µM [activator, single point] |  |
| COc1ccc(OC)c(/C=N/NC(=O)c2cc[n+](Cc3ccccc3)cc2)c1 |  | inactive: 0.0455% |
| S=c1[nH]nc(-c2ccccc2)n1/N=C/C=C/c1ccco1 | inconclusive: 20 µM [activator, single point] |  |
| CCN(CC)C(=O)C1CCC(CNS(=O)(=O)c2cccc3nsnc23)CC1 (stereo not given) | inconclusive: 14.1 µM [activator, single point] |  |
| O=C(NNS(=O)(=O)c1ccc(Br)cc1)NC1CCCCC1 | inconclusive: 2.82 µM [activator, partial curve] |  |
| CCOc1ccc(C(=O)OCC(=O)Nc2cccnc2Cl)cc1OCC |  | inactive: -4.04% |
| C=C(C)C1CC=C(C)/C(=N\NC(=O)CNc2cccc3ccccc23)C1 (stereo not given) | inconclusive: 4.47 µM [activator, single point] |  |
| CCn1cc(C(=O)NC(=S)Nc2sc3c(c2C(=O)OC)CCCCCC3)cn1 | inconclusive: 20 µM [activator, single point] |  |
| COc1ccc(-c2cc(C(F)F)n3ncc(C(=O)N4CCCCC4)c3n2)cc1 |  | inactive: 7.81% |
| CCCN1CCN(C(=O)C2CCN(S(=O)(=O)c3ccc4c(c3)NC(=O)C(C)S4)CC2)CC1 (stereo not given) | inconclusive: 3.16 µM [activator, single point] |  |
| CCNC(=S)N/N=C(\C)c1cccc([N+](=O)[O-])c1 | inconclusive: 10 µM [activator, single point] |  |
| Cc1ccc(NC(=O)CN2CCOCC2)cc1S(=O)(=O)N1CCCCC1 | inconclusive: 1.58 µM [activator, partial curve] |  |
| O=C(N/N=C/c1ccccc1O)c1cccc(C(F)(F)F)c1 | inconclusive: 2.24 µM [activator, partial curve, poor fit] |  |
| CC(C)(C)NC(=O)CC1C[C@H](C(=O)N2CCOCC2)[C@@]2(C)c3[nH]c4ccccc4c3CCN2C1=O (stereo not given in full) | inconclusive: 17.8 µM [activator, single point] |  |
| CN(C)S(=O)(=O)c1cccc(C(=O)Nc2cc3c(cc2C(=O)O)OCCCO3)c1 |  | inactive: 1.38% |
| CC(C)Oc1cccc(C(=O)NC(=S)Nc2ccc(Cl)c(C(=O)O)c2)c1 | inconclusive: 14.1 µM [activator, partial curve] |  |
| CSc1ccccc1OCc1cc(C(=O)N2C[C@H]3CC[C@H]2C3)no1 | inconclusive: 0.398 µM [activator, full curve, poor fit] |  |
| COc1ccc(C(=O)COC(=O)C(CCSC)NC(=O)COc2ccccc2)cc1 (stereo not given) |  | inactive: -1.06% |
| CCc1cccc(CC)c1NC(=O)CO/N=C(\C)c1cccs1 | inconclusive: 1 µM [activator, full curve] |  |
| CCOC(=O)C(C)Oc1ccc2c(-c3cccc([N+](=O)[O-])c3)cc(=O)oc2c1 (stereo not given) | inconclusive: 10 µM [activator, partial curve] |  |
| O=C(CSc1ccc2ccccc2c1)Nc1ccncc1 |  | inactive: -42% |
| CC1(C)Cc2c(C#N)c(NCc3ccco3)nc(-c3ccco3)c2CO1 | inconclusive: 3.98 µM [activator, single point] |  |
| N#CC(C#N)=c1ccc2c(c1)NC1(CCCCC1)N=2 |  | inactive: -29.5% |

| SMILES | Potency | activity, positive = growth rescue |
| --- | --- | --- |
| CC(C)(C)c1cc(NC(=O)c2cc(F)c(F)c(F)c2F)no1 | inconclusive: 3.98 µM [activator, single point] |  |
| C/C(=N\NC(=O)c1cc(C2CC2)nc2ccccc12)c1ccc(O)cc1O | inconclusive: 7.94 µM [activator, partial curve] |  |
| O=C(CNC(=O)c1ccc(Cl)cc1)Nc1ccc(Br)cc1C(=O)c1ccccc1 | inconclusive: 2.51 µM [activator, single point] |  |
| CN(Cc1c(C(=O)N/N=C/c2cccc(Cl)c2)nnn1-c1nonc1N)c1ccccc1 | inconclusive: 17.8 µM [activator, single point] |  |
| Cc1nn(Cc2nnc(SCC(=O)Nc3cccc(C(F)(F)F)c3)n2C)c(C)c1[N+](=O)[O-] |  | inactive: 0.63% |
| CCC(=O)N1CCc2cc(S(=O)(=O)CCC(=O)N3CCc4ccccc4C3)ccc21 |  | inactive: -0.573% |
| Cc1c(C(=O)OCCOc2ccccc2)[nH]c2c1C(=O)CCC2 |  | inactive: -10.3% |
| C=C1C2[C@H](OC(C)=O)[C@@H]3CC(=O)[C@]4(C)OC[C@@]3(C)[C@@]4(O)[C@@H](OC(C)=O)[C@H](OC(C)=O)[C@@]2(COC(=O)c2ccccc2)[C@@H](OC(C)=O)C[C@@H]1O (stereo not given in full) | inconclusive: 0.398 µM [activator, full curve] |  |
| O=C(Nc1ccnn1C1CCN(C2CCCC2)CC1)c1ccccc1Cl | inconclusive: 3.55 µM [activator, single point] |  |
| CN(C)c1ccc(/C=N/NC(=O)c2ccccc2O)o1 | inconclusive: 17.8 µM [activator, single point] |  |
| O=C(c1ccccc1)c1ccc(N2CCN(C(=O)c3cccc(F)c3F)CC2)c(F)c1 | active: 6.31 µM |  |
| Cc1nc2c3c(-c4ccccc4)c(-c4ccccc4)oc3ncn2n1 | inconclusive: 20 µM [activator, single point] |  |
| O=C(Nc1ccc(Cl)cc1F)c1cccc2ccccc12 | inconclusive: 12.6 µM [activator, single point] |  |
| COc1cc(OC)cc(C(=O)Nn2cc(C(=O)Nc3ccccc3F)c3ccccc3c2=O)c1 |  | inactive: 12.1% |
| Oc1[nH]c2ccccc2c1/C=N/N1CCCCC1 | inconclusive: 10 µM [activator, single point] |  |
| O=C(CN(C(=O)CNC(=O)c1ccco1)c1ccc2c(c1)OCCO2)NC1CCCCC1 |  | inactive: 0.157% |
| COc1ccc(N(C(=O)C(C)C)S(=O)(=O)c2ccc3c(c2)n(C)c(=O)n3C)cc1 | inconclusive: 3.16 µM [activator, single point] |  |
| C=C(C)Cn1c(=O)c2c(nc3n2CCCN3CCc2ccccc2)n(C)c1=O |  | inactive: -14% |
| Cc1cc(C(=O)NCC(C)C)c2ccccc2n1 | inconclusive: 20 µM [activator, single point] |  |
| CC(=O)Nc1ccc(S(=O)(=O)N2CCc3c(Cl)cccc3C2)cc1 | inconclusive: 3.98 µM [activator, single point] |  |
| O=C(CCc1ccccc1)NCc1ccc(F)cc1 |  | inactive: 5.46% |
| CNC(=O)O/N=C(\N)Cc1csc2ccc(Cl)cc12 | inconclusive: 15.8 µM [activator, single point] |  |

Part of the list above, with tabs:
SMILES	Potency	activity, positive = growth rescue
CCn1c(SCc2ccccc2)nc2c1c(=O)[nH]c(=O)n2C	inconclusive: 3.16 µM [activator, single point]	
Cc1ccc(Cl)cc1NC(=O)COC(=O)c1ccc(N2CCCC2)c([N+](=O)[O-])c1	inconclusive: 20 µM [activator, single point]	
N#CCCn1c(SCC(=O)Nc2ccc(N3CCOCC3)cc2)nc2ccccc21		inactive: 5.61%
